Experimental data published in patent US20250066303A1, “ARYL TETRAHYDROPYRIDINE DERIVATIVE OR SALT THEREOF, PEST CONTROL AGENT CONTAINING SAME, AND METHOD FOR USE THEREOF” (NIHON NOHYAKU CO., LTD., priority 2021, published 2025).
Some entries share one result that the patent states for a list of compounds.

Test system: Dirofilaria immitis
Assay: Influence evaluation test on the growth of Dirofilaria immitis
Settings: final concentration of 10 μM, seven days, 24-well plate

SMILES | development inhibition rate from the L3 stage larva to the L4-stage larva
CN1C(=O)C(C(=S)Nc2ccc(F)cc2)=C(O)CC1c1ccc(C(F)(F)F)cc1 (stereo not shown) [1-8] | not less than 50%
CCC1(c2ccc(C(F)(F)F)cc2)CN(C)C(=O)C(C(=O)Nc2ccc(F)cn2)=C1O (stereo not shown) [3-22] | not less than 50%
CC1(c2ccc(C(F)(F)F)cc2)CNC(=O)C(C(=O)Nc2ccc(F)cc2)=C1O (stereo not shown) [3-18] | not less than 50%
C#CCN1C(=O)C(C(=O)Nc2ccn(C)n2)=C(O)CC1c1ccc(C(F)(F)F)nc1 (stereo not shown) [1-34] | not less than 50%
CCC1(c2ccc(C(F)(F)F)cc2)CN(C)C(=O)C(C(=O)Nc2ccc(C3CC3)cc2C)=C1O (stereo not shown) [3-38] | not less than 50%
O=C(Nc1ccc(F)cc1)C1=C(O)CC(c2ccc(C(F)(F)F)cc2)N(Cc2ccccc2)C1=O (stereo not shown) [1-5] | not less than 50%
CCC1(c2ccc(C(F)(F)F)cc2)CN(C)C(=O)C(C(=O)Nc2ccc(Cl)nn2)=C1O (stereo not shown) [3-78] | not less than 50%
CN1CC(C)(c2ccc(C(F)(F)F)cc2)C(O)=C(C(=O)Nc2ccc(F)cc2)C1=O (stereo not shown) [3-11] | not less than 50%
CN1C(=O)C(C(=O)Nc2ccc(F)cn2)=C(O)CC1c1ccc(C(F)(F)F)cc1 (stereo not shown) [1-10] | not less than 50%
CCC1(c2ccc(C(F)(F)F)cc2)CN(C)C(=O)C(C(=O)Nc2ccc(C#N)cc2)=C1O (stereo not shown) [3-30] | not less than 50%
CN1C(=O)C(C(=O)NCc2ccc(F)cc2)=C(O)CC1c1ccc(C(F)(F)F)cc1 (stereo not shown) [compound No. 1-3] | not less than 50%
CCC1(c2ccc(C(F)(F)F)cc2)CN(C)C(=O)C(C(=O)Nc2ccc(F)cc2)=C1O (stereo not shown) [3-20] | not less than 50%
CN1C(=O)C(C(=O)Nc2ccc(F)cn2)=C(O)C2(CCCCC2)C1c1ccc(C(F)(F)F)cc1 (stereo not shown) [2-2] | not less than 50%
CN1C(=O)C(C(=S)Nc2ccc(F)cn2)=C(O)CC1c1ccc(C(F)(F)F)cc1 (stereo not shown) [1-11] | not less than 50%
CN1C(=O)C(C(=O)Nc2nc3cc(Cl)ccc3s2)=C(O)CC1c1ccc(C(F)(F)F)cc1 (stereo not shown) [1-17] | not less than 50%
CCC1(c2ccc(C(F)(F)F)cc2)CN(C)C(=O)C(C(=O)Nc2ccc(SC)cc2)=C1O (stereo not shown) [3-28] | not less than 50%
CN1C(=O)C(C(=O)Nc2ncc(Cl)s2)=C(O)CC1c1ccc(C(F)(F)F)cc1 (stereo not shown) [1-16] | not less than 50%

SMILES | development inhibition rate from the L3 stage larva to the L4-stage larva
CCC1(c2ccc(C(F)(F)F)cc2)CN(C)C(=O)C(C(=S)Nc2ccc(F)cc2)=C1O (stereo not shown) [3-21] | not less than 50%
CCC1(c2ccc(C(F)(F)F)cc2)CN(C)C(=O)C(C(=O)Nc2ccc(S(C)(=O)=O)cc2)=C1O (stereo not shown) [3-35] | not less than 50%
CCC1(c2ccc(C(F)(F)F)cc2)CN(C)C(=O)C(C(=O)NN2CCOCC2)=C1O (stereo not shown) [3-27] | not less than 50%
CCC1(c2ccc(C(F)(F)F)cc2)CN(C)C(=O)C(C(=O)Nc2ccc(C)cc2)=C1O (stereo not shown) [3-34] | not less than 50%
CCCN1C(=O)C(C(=O)Nc2ccc(F)cn2)=C(O)CC1c1ccc(C(F)(F)F)nc1 (stereo not shown) [1-31] | not less than 50%
CCC1(c2ccc(C(F)(F)F)cc2)CN(C)C(=O)C(C(=O)Nc2ccc(OC(F)(F)F)cc2)=C1O (stereo not shown) [3-32] | not less than 50%
CCC1(c2ccc(C(F)(F)F)cc2)CN(C)C(=O)C(C(=S)Nc2ccc(F)cn2)=C1O (stereo not shown) [3-23] | not less than 50%
CCC1(c2ccc(C(F)(F)F)cc2)CN(C)C(=O)C(C(=O)Nc2ncc(F)cn2)=C1O (stereo not shown) [3-26] | not less than 50%
CCCN1C(=O)C(C(=O)Nc2ccc(F)cc2)=C(O)CC1c1ccc(C(F)(F)F)nc1 (stereo not shown) [1-32] | not less than 50%
CCC1(c2ccccc2)CN(C(C)c2ccccc2)C(=O)C(C(=O)Nc2ccc(F)cn2)=C1O (stereo not shown) [3-37] | not less than 50%
CN1C(=O)C(C(=S)Nc2ccc(F)cc2)=C(O)C2(CCCCC2)C1c1ccc(C(F)(F)F)cc1 (stereo not shown) [2-3] | not less than 50%
C#CCN1C(=O)C(C(=O)Nc2ccnc(F)c2)=C(O)CC1c1ccc(C(F)(F)F)nc1 (stereo not shown) [1-35] | not less than 50%
CN1C(=O)C(C(=O)Nc2ccc(F)nc2)=C(O)CC1c1ccc(C(F)(F)F)cc1 (stereo not shown) [1-14] | not less than 50%
CCC1(c2ccc(C(F)(F)F)cc2)CN(C)C(=O)C(C(=O)Nc2ccc(OC)cc2)=C1O (stereo not shown) [3-31] | not less than 50%
CCC1(c2ccc(C(F)(F)F)cc2)CN(C)C(=O)C(C(=O)Nc2cnc3ccccc3c2)=C1O (stereo not shown) [3-29] | not less than 50%
CCC1(c2ccc(C(F)(F)F)cc2)CN(C)C(=O)C(C(=O)Nc2ccc(SC(F)(F)F)cc2)=C1O (stereo not shown) [3-33] | not less than 50%
CN1CC(C)(c2ccc(C(F)(F)F)cc2)C(O)=C(C(=O)Nc2ccc(F)cn2)C1=O (stereo not shown) [3-17] | not less than 50%
